For 1 molecule, binding results are on record in publication PMC9820335.

Sequences of proteins named here, by UniProt entry; tags and fusion partners are left off. A change or cut given only in a name is not applied to a line headed by its entry.
UniProt P62508: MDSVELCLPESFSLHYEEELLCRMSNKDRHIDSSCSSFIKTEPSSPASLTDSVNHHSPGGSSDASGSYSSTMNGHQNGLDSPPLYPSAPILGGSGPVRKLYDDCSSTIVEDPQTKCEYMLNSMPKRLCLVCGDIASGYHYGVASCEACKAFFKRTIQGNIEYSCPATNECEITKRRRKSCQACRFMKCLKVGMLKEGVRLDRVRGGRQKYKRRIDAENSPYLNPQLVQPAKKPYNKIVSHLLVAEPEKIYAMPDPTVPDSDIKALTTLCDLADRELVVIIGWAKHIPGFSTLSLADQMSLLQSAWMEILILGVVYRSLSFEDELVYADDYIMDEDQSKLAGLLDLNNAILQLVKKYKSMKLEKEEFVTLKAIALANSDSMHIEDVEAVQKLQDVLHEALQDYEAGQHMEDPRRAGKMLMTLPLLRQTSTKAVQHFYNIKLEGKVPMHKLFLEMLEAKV

This assay has as its target FLAG-ERRγΔH12 (UniProt P62508). Put plainly: co-IP; 293T cells co-transfected, treated with vehicle or GSK5182 (10 µM) for 18 h; lysates immunoprecipitated with anti-FLAG (FLAG-ERRγ forms as bait), immunoblotting for the tagged partner.

No constants are given. Whether binding was seen depends on the method and setting. In cells and extracts the contact can be indirect. Where a sequence is shown, tags or fusion partners need not be part of it.

B1: HA-SMILE (small heterodimer partner-interacting leucine zipper protein) (protein, UniProt Q9NS37 1-354)
chain: MRHSLTKLLAASGSNSPTRSESPEPAATCSLPSDLTRAAAGEEETAAAGSPGRKQQFGDEGELEAGRGSRGGVAVRAPSPEEMEEEAIASLPGEETEDMDFLSGLELADLLDPRQPDWHLDPGLSSPGPLSSSGGGSDSGGLWRGDDDDEAAAAEMQRFSDLLQRLLNGIGGCSSSSDSGSAEKRRRKSPGGGGGGGSGNDNNQAATKSPRKAAAAAARLNRLKKKEYVMGLESRVRGLAAENQELRAENRELGKRVQALQEESRYLRAVLANETGLARLLSRLSGVGLRLTTSLFRDSPAGDHDYALPVGKQKQDLLEEDDSAGGVCLHVDKDKVSVEFCSACARKASSSLKM
On to B1, for which the binding result was “no binding”.
